From US20130109635A1, “Humanin Decreases Liver Fat and Visceral Fat Accumulation” (priority 2011, published 2013)

Tests used:
[1] = High fat diet (60% fat) for one month with daily injections of HNG: food intake, body weight, visceral fat, liver fat, serum lipids; format: in vivo, mice; details: HNG 2 mg/kg daily
Method: (§1) The effect of humanin analog, HNG, on hepatic lipid fluxes was investigated. In the acute study, HNG was infused into third ventricle (ICV) of awake, unstressed and chronically catheterized Sprague-Dawley rats and C57BLK6 mice and studied plasma triglyceride (TG) levels following an injection of Tyloxapol (Triton WR1339, Sigma-Aldrich Corp, St. Louis, Mo.), an inhibitor of TG clearance. Groups of animals were also challenged with high fat diet (HFD) of 60% fat for one month and were treated with either daily injections of saline or of HNG (2 mg/kg). Body weight and Food intake were monitored twice a week. At the end of one month, liver fat was assessed both by histology and estimation of tissue triglycerides and plasma was collected. Total amount of visceral fat (VF) was determined and the specific depots were meticulously dissected and weighed. Tissue samples were snap-frozen for subsequent analysis.
Chronic effects of Humanin on liver lipid content: Groups of animals were challenged with high fat diet (HFD-60% fat) for one month and were treated with either daily injections of saline or HNG (2 mg/kg). At the end of one month, liver fat were assessed both by histology and estimation of tissue triglycerides.

[2] = system: triglyceride secretion from liver; test: Acute ICV infusion of HNG with tyloxapol injection, plasma TG levels, rats; format: in vivo, Sprague-Dawley rats; details: ICV HNG 1 μg
Method: as §1
Acute effects of Humanin on liver fluxes: The effect of HN was studied in acute and chronic treatment models. […]
With infusion of tyloxapol, there was a steady increase in plasma triglyceride levels in both groups from inhibition of TG clearance. […] The rate of TG secretion was calculated in the animals based on plasma triglyceride levels at 0 and 120 min time points using the following equation: secretion rate of TG/hr mg/min=(TG at 120 min−TG at 0 min)/number of hours.

[3] = HFD, end of 4 weeks, data not shown

MAPRGFSCLLLLTGEIDLPVKRRA (ANALOG OF HUMAN HUMANIN PEPTIDE) [HNG]
food intake vs control ([1]; HFD for 4 weeks, intraperitoneal): no difference
Serum TG vs control [1, 3]: tended to be higher
free fatty acids vs control [1, 3]: not significantly different
Glucose (180 min) [2]: 147 ± 8.09 mg/dL
